16 substances from article PMC7346168 can be followed below.

Chains of the proteins cited; added tags and fusions are not shown. Lines headed by an entry give the natural chain unless they say otherwise; changes in a name come on top. Residues count along the entry.
UniProt P56757: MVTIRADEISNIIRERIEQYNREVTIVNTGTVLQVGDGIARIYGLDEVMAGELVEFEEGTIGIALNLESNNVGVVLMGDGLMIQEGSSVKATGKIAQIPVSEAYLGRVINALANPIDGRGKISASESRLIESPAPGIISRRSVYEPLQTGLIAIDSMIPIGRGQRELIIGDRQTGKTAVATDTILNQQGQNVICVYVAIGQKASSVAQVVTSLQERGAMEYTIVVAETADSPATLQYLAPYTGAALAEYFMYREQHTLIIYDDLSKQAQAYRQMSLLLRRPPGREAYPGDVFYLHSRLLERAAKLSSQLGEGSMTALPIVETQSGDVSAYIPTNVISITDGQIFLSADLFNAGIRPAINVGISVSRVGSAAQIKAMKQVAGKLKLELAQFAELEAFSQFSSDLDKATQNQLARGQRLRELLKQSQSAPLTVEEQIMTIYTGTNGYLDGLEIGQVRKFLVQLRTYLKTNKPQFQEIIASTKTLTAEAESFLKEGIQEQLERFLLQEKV
UniProt Q8W583, residues 50-190: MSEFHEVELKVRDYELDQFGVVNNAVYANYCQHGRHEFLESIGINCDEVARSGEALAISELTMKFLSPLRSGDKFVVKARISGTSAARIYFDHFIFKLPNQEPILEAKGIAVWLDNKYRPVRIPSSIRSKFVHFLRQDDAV
UniProt P17745, residues 68-476: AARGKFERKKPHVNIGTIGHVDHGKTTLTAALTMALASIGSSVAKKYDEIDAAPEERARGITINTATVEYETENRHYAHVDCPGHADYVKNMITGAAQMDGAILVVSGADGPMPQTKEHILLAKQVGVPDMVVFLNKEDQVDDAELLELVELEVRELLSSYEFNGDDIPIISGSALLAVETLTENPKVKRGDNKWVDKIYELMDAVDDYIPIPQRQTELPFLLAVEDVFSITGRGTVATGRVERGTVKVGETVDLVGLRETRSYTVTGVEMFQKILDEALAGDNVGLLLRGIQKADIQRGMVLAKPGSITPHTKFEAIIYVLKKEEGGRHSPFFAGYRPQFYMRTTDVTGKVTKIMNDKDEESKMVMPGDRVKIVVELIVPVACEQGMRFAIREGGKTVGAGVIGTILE
UniProt Q9SPK5: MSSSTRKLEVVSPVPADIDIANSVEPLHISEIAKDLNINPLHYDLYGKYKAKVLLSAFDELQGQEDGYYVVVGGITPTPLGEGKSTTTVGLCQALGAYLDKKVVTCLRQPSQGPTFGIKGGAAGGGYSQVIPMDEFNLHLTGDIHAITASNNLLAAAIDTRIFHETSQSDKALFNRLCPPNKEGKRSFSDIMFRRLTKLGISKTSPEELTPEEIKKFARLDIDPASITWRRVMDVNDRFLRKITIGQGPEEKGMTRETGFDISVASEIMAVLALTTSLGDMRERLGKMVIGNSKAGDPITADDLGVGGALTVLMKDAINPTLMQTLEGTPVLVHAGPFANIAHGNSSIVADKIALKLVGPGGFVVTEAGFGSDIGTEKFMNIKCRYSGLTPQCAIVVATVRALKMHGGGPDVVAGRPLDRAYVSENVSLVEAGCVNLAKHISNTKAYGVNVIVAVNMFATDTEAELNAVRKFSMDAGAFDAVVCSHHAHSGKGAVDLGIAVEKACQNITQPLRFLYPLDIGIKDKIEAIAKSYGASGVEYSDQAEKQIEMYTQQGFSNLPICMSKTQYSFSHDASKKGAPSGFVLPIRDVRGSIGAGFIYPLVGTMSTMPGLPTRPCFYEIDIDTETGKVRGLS
UniProt P38418: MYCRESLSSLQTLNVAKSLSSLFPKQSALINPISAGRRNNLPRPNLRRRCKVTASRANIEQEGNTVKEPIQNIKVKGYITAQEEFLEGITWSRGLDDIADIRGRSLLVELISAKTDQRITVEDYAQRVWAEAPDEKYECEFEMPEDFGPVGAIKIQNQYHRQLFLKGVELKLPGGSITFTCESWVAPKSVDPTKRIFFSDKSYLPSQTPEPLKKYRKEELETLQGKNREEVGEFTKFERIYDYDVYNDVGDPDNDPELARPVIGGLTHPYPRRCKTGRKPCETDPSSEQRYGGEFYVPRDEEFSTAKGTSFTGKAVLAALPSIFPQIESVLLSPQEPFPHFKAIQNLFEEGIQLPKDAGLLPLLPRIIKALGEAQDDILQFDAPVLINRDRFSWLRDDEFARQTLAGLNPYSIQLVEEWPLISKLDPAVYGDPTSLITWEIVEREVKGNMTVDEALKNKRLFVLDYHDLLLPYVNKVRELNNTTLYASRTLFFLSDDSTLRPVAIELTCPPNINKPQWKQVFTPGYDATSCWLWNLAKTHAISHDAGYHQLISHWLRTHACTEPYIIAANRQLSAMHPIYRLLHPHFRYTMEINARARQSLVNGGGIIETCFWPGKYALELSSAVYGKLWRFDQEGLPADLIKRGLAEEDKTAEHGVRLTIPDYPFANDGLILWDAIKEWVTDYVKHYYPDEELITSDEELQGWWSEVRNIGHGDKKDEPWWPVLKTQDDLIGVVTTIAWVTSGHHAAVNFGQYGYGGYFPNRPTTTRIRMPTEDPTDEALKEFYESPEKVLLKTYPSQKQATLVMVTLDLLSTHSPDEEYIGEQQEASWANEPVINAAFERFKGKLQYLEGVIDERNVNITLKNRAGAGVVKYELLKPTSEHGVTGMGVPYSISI
UniProt P23321, residues 86-332: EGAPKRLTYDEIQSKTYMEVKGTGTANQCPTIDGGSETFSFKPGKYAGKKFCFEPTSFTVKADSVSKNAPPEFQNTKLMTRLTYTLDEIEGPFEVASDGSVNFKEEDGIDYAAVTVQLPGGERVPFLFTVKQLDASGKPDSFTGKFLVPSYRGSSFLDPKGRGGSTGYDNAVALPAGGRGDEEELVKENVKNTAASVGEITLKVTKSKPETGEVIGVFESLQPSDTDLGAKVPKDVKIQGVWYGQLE
UniProt P34791, residues 80-260: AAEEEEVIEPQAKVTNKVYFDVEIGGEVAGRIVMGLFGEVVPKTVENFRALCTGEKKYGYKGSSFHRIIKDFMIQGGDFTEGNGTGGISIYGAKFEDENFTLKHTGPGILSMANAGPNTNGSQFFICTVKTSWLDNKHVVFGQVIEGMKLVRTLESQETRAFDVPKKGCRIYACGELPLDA
UniProt Q6ZY51, residues 55-1196: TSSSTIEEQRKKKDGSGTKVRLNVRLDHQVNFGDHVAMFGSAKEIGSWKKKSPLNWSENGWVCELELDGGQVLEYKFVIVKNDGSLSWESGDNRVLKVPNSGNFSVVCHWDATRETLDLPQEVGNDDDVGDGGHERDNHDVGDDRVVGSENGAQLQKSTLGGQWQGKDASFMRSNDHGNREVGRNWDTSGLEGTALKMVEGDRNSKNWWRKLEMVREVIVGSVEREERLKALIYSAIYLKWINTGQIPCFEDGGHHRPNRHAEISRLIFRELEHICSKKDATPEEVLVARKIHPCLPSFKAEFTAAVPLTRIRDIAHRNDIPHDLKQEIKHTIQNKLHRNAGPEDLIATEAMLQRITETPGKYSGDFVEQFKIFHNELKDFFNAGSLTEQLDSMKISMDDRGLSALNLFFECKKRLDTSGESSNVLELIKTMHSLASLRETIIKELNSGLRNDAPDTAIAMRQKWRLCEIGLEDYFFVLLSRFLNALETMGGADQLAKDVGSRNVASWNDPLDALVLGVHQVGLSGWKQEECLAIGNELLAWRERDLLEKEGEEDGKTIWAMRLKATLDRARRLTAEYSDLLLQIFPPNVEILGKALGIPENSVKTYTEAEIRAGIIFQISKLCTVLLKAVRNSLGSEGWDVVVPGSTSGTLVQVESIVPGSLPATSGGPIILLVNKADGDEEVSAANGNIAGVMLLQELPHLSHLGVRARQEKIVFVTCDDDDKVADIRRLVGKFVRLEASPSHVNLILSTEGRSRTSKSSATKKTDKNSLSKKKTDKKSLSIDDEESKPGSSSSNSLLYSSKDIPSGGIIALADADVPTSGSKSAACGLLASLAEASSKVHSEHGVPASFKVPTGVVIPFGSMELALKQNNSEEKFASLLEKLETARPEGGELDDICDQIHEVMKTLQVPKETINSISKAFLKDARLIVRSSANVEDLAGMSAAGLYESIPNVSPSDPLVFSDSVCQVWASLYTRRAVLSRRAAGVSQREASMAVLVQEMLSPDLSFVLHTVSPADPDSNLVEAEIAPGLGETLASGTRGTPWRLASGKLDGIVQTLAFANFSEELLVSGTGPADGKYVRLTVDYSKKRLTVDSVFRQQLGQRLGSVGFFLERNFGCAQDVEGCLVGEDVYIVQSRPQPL
UniProt Q9S7H1, residues 46-208: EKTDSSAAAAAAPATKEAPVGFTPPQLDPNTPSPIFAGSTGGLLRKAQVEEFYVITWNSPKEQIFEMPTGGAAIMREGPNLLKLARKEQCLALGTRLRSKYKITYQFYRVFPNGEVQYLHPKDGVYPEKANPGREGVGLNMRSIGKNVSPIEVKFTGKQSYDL
UniProt Q39129: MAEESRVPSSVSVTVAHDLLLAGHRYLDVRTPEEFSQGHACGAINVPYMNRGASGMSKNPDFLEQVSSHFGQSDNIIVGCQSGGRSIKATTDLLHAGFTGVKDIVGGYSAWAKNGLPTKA

Positions count from the first letter of the chain named. No constants are given. Whether binding was seen depends on the method and setting. In cells and extracts the contact can be indirect. These calls come from enrichment with a bait or labelling near it, and not all partners need be listed.

The target of test [1] is T1, 2-CysPRXA C54S (pseudo-reduced variant) (Arabidopsis) (UniProt Q96291).
T1 sequence: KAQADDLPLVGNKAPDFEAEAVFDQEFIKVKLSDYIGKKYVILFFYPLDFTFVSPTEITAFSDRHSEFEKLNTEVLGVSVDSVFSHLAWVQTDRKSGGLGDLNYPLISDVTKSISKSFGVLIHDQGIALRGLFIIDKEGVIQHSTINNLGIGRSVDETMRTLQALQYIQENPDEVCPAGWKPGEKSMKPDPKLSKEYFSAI
Nature of the test: affinity purification with mass spectrometry; reducing: his6-tagged 2-CysPRXA variant (3 mg) on Ni-NTA-agarose pretreated with 10 mM DTT; leaf extract (50 mg protein) made with 10 mM DTT; 50 mM HEPES pH 8.0, 1 h, 4 °C; stepwise elution with 1 M NaCl, 10 mM DTT, 250 mM imidazole; hits not found on the column without 2-CysPRX; only the target purified.

Test [2] concerns the target T2, 2-CysPRXA C54D (pseudo-hyperoxidized variant) (Arabidopsis) (UniProt Q96291).
T2 sequence: T1 sequence with S54D
The test is described as follows: affinity purification with mass spectrometry; oxidizing: his6-tagged 2-CysPRXA variant (3 mg) on Ni-NTA-agarose pretreated with 1 mM H2O2; leaf extract (50 mg protein) made with 1 mM H2O2; 50 mM HEPES pH 8.0, 1 h, 4 °C; stepwise elution with 1 M NaCl, 10 mM DTT, 250 mM imidazole; hits not found on the column without 2-CysPRX; only the target purified.

Test [3] addresses T1, 2-CysPRXA C54S (pseudo-reduced variant) (Arabidopsis). Described as above.
The target in test [4] is T2, 2-CysPRXA C54D (pseudo-hyperoxidized variant) (Arabidopsis). Nature of the test: affinity purification with mass spectrometry; reducing: his6-tagged 2-CysPRXA variant (3 mg) on Ni-NTA-agarose pretreated with 10 mM DTT; leaf extract (50 mg protein) made with 10 mM DTT; 50 mM HEPES pH 8.0, 1 h, 4 °C; stepwise elution with 1 M NaCl, 10 mM DTT, 250 mM imidazole; hits not found on the column without 2-CysPRX; only the target purified.

For test [5], the target named is T3, 2-cysteine peroxiredoxin A, wild type (2-CysPRXA WT) (Arabidopsis) (UniProt Q96291).
T3 sequence: T1 sequence with S54C
Described as above.

The target in test [6] is T3, 2-cysteine peroxiredoxin A, wild type (2-CysPRXA WT) (Arabidopsis). Nature of the test: affinity purification with mass spectrometry; oxidizing: his6-tagged 2-CysPRXA variant (3 mg) on Ni-NTA-agarose pretreated with 1 mM H2O2; leaf extract (50 mg protein) made with 1 mM H2O2; 50 mM HEPES pH 8.0, 1 h, 4 °C; stepwise elution with 1 M NaCl, 10 mM DTT, 250 mM imidazole; hits not found on the column without 2-CysPRX; only the target purified.

The target in test [7] is T1, 2-CysPRXA C54S (pseudo-reduced variant) (Arabidopsis). Nature of the test: affinity purification with mass spectrometry; same pull down as a1 and a2, hits compiled from the results with all variants, redox and elution conditions; the redox condition is not told for the hit; only the target purified.
For test [8], the target named is T3, 2-cysteine peroxiredoxin A, wild type (2-CysPRXA WT) (Arabidopsis). The test is described as above.

With AIR carboxylase like protein, the binding result in test [1] is given as “binds”.
As for AT5g64380/MSJ1_22, the binding entry in test [2] is “binds”.
“ATPase alpha subunit (from UniProt P56757 1-507)”: in test [3], the binding entry is given as “binds”.
For the substance “Acyl-ACP thioesterase ATL3 (from UniProt Q8W583 50-190)”, the binding entry in test [4] was “binds”.
On to DAHP synthase 2, for which, in test [5], the binding result is recorded as “binds”.
Take “Elongation factor 1 alpha (AT4G20360) (from UniProt P17745 68-476)”: the binding entry in test [6] is “binds”.
Turning to “Formate--tetrahydrofolate ligase (from UniProt Q9SPK5 1-634)”, the binding entry in test [3] is given as “binds”.
As for Glutathione reductase, in test [2], the binding result was “binds”.
As for “LIPOXYGENASE 2 (leaf protein) (from UniProt P38418)”, the binding result in test [7] and in test [8] was “binds” in each case.
Take “Oxygen-evolving enhancer protein 1-1 (from UniProt P23321 86-332)”: in test [3], the binding entry is recorded as “binds”.
As for “Peptidyl-prolyl isomerase CYP20-3 (leaf protein) (from UniProt P34791 80-260)”, the binding entry in test [2] is “binds”.
As for “Phosphoglucan, water dikinase (from UniProt Q6ZY51 55-1196)”, in test [4], the binding entry is given as “binds”.
In the case of “Photosystem I reaction center subunit II-1 (from UniProt Q9S7H1 46-208)”, the binding result in test [1] is on record as “binds”.
On the same count and under the same terms, next, Putative protein (At2G22230): “binds”.
Turning to “Thiosulfate sulfurtransferase 16 (from UniProt Q39129 1-120)”, in test [2], the binding result is on record as “binds”.
Consider Transaldolase-like protein, for which the binding result in test [5] is listed as “binds”.
